Screen size: about 400,000 compounds; about 3,700 (0.93%) were called active. Inconclusive means that the source gave no clear call. Such entries were picked first, then a sample of the others. The call rests on the fitted dose curve; in most records, active means well fitted inhibition curve with a large enough effect; inconclusive means small, poorly fitted or top-dose-only effect, or another doubt; inactive means no such curve, though single readings can be large or run the other way. Potencies of inconclusive entries are doubtful fits and often do not repeat.
molecular target: Vitamin D3 receptor (Homo sapiens) (UniProt P11473); assay: Inhibitors of the vitamin D receptor (VDR): qHTS; settings: VDR-SRC2-3 peptide fluorescence polarization, 2 h; max response, negative = inhibition: active compounds read low
Procedure, shortened: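 Measured by FP: displacement of SRC2-3 coactivator peptide from VDR by library compounds, following a two-hour ambient incubation.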
On the % scale 0 is the no-effect control and ±100 the full control effect; potency means the concentration at half of the fitted maximal effect.

The chains behind the UniProt entries cited, without tags or fusion partners. Where a name states a change or a piece, a line headed by the entry shows the natural chain unless it says otherwise.
UniProt P11473: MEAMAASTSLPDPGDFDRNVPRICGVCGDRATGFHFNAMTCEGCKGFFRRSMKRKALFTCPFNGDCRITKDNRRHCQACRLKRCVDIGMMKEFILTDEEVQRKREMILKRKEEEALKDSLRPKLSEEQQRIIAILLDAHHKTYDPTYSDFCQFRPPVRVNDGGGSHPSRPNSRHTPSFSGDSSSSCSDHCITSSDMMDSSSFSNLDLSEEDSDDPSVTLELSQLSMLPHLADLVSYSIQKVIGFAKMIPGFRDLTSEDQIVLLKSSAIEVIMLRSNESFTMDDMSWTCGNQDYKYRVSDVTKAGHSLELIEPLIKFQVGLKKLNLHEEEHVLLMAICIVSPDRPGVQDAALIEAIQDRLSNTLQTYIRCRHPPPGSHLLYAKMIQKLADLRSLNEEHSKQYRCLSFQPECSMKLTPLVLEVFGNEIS

Compound	max response, negative = inhibition	Potency
CC(C)c1cc(C(=O)NCCc2ccccc2)no1	inactive: -2.49%	
c1ccc2c(c1)OCCc1c-2[nH]c2ccccc12	inactive: 4.99%	
COc1ccc(SC[C@H](CC(C)C)N2CCN(CCc3ccccc3)CCC2=O)cc1	inactive: 10.8%	
CC(=O)c1ccc(OCC(=O)Nc2ccc3nc(C)sc3c2)cc1		inconclusive: 79.4 µM [inhibitor, single point]
CCN(CC)c1ccc2c(-c3ccc(S(=O)(=O)O)cc3S(=O)(=O)[O-])c3ccc(=[N+](CC)CC)cc-3oc2c1		active: 39.8 µM
O=C(CSc1ccccc1)NCc1ccccn1		inconclusive: 12.6 µM [inhibitor, full curve]
Cc1ccc(S(=O)(=O)N2[C@@H](c3ccc(C(C)(C)C)cc3)C(C(=O)O)=CC[C@H]2c2ccc(Cl)cc2)cc1		inconclusive: 89.1 µM [inhibitor, partial curve, poor fit]
Cc1ccc(CNC(=O)C(=O)NCC(c2cccs2)S(=O)(=O)c2ccc(C)cc2)cc1 (configuration not stated)	inactive: -3.3%	
NC1=NC(=O)/C(=C\c2cc([N+](=O)[O-])ccc2Cl)S1	inactive: 2.78%	
Cc1ccc(N=C2C(=O)Nc3ccc(C)c(Br)c32)cc1		inconclusive: 89.1 µM [inhibitor, partial curve, poor fit]
CN(CC(=O)Nc1c(Cl)cccc1Cl)C(=O)c1ccc2nc[nH]c2c1	inactive: 20.8%	
Cc1ccc(NCc2ccc(O)c3ncccc23)cc1		inconclusive: 3.55 µM [inhibitor, full curve, poor fit]
COc1ccc(Nc2ncnc3c2cnn3-c2ccc(C)cc2C)cc1	inactive: 4.38%	
COc1ccc(-c2cc(OC)c3ccccc3n2)cc1		inconclusive: 50.1 µM [inhibitor, partial curve, poor fit]
CCOC(=O)c1c(C)oc2c1c1c(c3ccccc32)OCN(CCCC(=O)O)C1		active: 89.1 µM
O=C(CN1CCN(c2ncccn2)CC1)Nc1ccccc1-n1cccc1	inactive: -27.5%	
Cc1[nH][nH]c(=O)c1C(c1ccc([N+](=O)[O-])cc1)c1c(C)[nH][nH]c1=O		inconclusive: 89.1 µM [inhibitor, single point]
CC(C)CC1C(C#N)=C(N)SC(N)=C1C#N		inconclusive: 100 µM [inhibitor, partial curve, poor fit]
O=C(O)C(C(=O)Oc1ccccc1)C(C(=O)O)C(=O)Oc1ccccc1 (configuration not stated)		inconclusive: 89.1 µM [inhibitor, single point]
COc1ccc(/C(C)=N/Nc2nncc3ccccc23)cc1		inconclusive: 89.1 µM [inhibitor, partial curve, poor fit]
Cc1ccc(Nc2nnc(-c3ccc4c(c3)OCO4)o2)c(C)c1		inconclusive: 100 µM [inhibitor, single point]
Cc1ccc2c(c1)c1c(c(=O)n(-c3ccccc3C)c(=O)n1CC(=O)NCCC1=CCCCC1)n2C	inactive: 3.4%	
COC(=O)[C@@]1(Cc2ccc(OC)cc2)[C@@H]2C(=CC(=O)[C@H]2CC(=O)C(=O)N(C)C)CN1C(=O)c1ccccc1		active: 79.4 µM

Arranged by molecular weight (smallest number first): some entries from above
Compound	max response, negative = inhibition	Potency
CC(C)c1cc(C(=O)NCCc2ccccc2)no1	inactive: -2.49%	
CC(=O)c1ccc(OCC(=O)Nc2ccc3nc(C)sc3c2)cc1		inconclusive: 79.4 µM [inhibitor, single point]
COc1ccc(Nc2ncnc3c2cnn3-c2ccc(C)cc2C)cc1	inactive: 4.38%	
Cc1ccc(S(=O)(=O)N2[C@@H](c3ccc(C(C)(C)C)cc3)C(C(=O)O)=CC[C@H]2c2ccc(Cl)cc2)cc1		inconclusive: 89.1 µM [inhibitor, partial curve, poor fit]

Later entries.

Compound	max response, negative = inhibition	Potency
Cc1nn(C(C)C(=O)NCCc2ccco2)c(=O)c2nn(-c3ccccc3)c(C)c12 (configuration not stated)		inconclusive: 39.8 µM [inhibitor, partial curve, poor fit]
COc1ccc(N=C2C(=O)Nc3ccc(C)c(Br)c32)cc1		inconclusive: 39.8 µM [inhibitor, full curve]
COC(=O)CC1C(C)(C)C(=O)C2CC3=C(CC[C@]4(C)C3=CC(=O)OC4c3ccoc3)[C@@]1(C)C2=O (some centres not stated)	inactive: 3.15%	
CN(Cc1ccccn1)C(=O)CC1C(=O)NCCN1Cc1cccc(Oc2ccccc2)c1 (configuration not stated)	inactive: -4.2%	
CC(=O)CSc1ncnc2c1cnn2-c1ccccc1		inconclusive: 28.2 µM [inhibitor, partial curve, poor fit]
N#CCCCSC1=C(C#N)C(c2ccccc2Cl)CC(=O)N1 (configuration not stated)		inconclusive: 22.4 µM [inhibitor, single point]
CCC(=O)Nc1nnc(S(=O)(=O)N(C)Cc2ccco2)s1		inconclusive: 39.8 µM [inhibitor, single point]
Cc1nn(-c2ccccc2)c(Cl)c1/C=C1/C(=N)N2N=C(C(C)C)SC2=NC1=O		inconclusive: 89.1 µM [inhibitor, single point]
O=C(c1cccc(F)c1)N1CCC2(CCCN(c3ccccn3)C2)CC1		inconclusive: 44.7 µM [inhibitor, partial curve, poor fit]
NC(=S)c1ccc[n+]([O-])c1		active: 50.1 µM
CC(=O)Nc1ccc(SC[C@H](C)CN2CC[C@H](O)CCC2=O)cc1		inconclusive: 50.1 µM [inhibitor, full curve, poor fit]
C=CCCN(Cc1ccccc1)S(=O)(=O)c1ccccc1Br		inconclusive: 3.16 µM [inhibitor, partial curve, poor fit]
Cc1ccc(Cn2c(SCC(=O)NCC3CCCO3)nc3ccsc3c2=O)cc1 (configuration not stated)		inconclusive: 89.1 µM [inhibitor, partial curve, poor fit]
Cc1onc(-c2ccccc2)c1-c1nc2ccccc2c(=O)o1		inconclusive: 17.8 µM [inhibitor, full curve]
c1ccc(OCc2nnc3n2N=C(c2ccccc2)CS3)cc1		inconclusive: 22.4 µM [inhibitor, partial curve]
COCCNC(=S)c1ccc(Br)cc1		inconclusive: 89.1 µM [inhibitor, partial curve, poor fit]
CCCCc1c(C)nc2c(OC)cccc2c1SCCC(=O)O		inconclusive: 0.631 µM [inhibitor, full curve, poor fit]
CCc1ccc(NC(=O)C2CCN(c3cc(C)nc4c(-c5ccc(Cl)cc5)c(C)nn34)CC2)cc1		inconclusive: 89.1 µM [inhibitor, partial curve, poor fit]
Cc1ccc(SC(=O)COc2ccc(C)c(C)c2)cc1		inconclusive: 39.8 µM [inhibitor, partial curve]
COc1cc(/C=C(/C#N)C(=O)Nc2ccccc2)c(Br)cc1OCc1ccc(C(=O)O)cc1		active: 50.1 µM
CCS(=O)(=O)c1ncc(Cl)c(C(=O)Nc2ccccc2OC)n1		inconclusive: 4.47 µM [inhibitor, full curve, poor fit]
COCCn1c(SCC(=O)Nc2cc(C)on2)nc2c(c1=O)SC(C)C2 (configuration not stated)	inactive: 1.97%	
Cc1nc2ccc(NC(=O)C3=NN(C)C(=O)CC3)cc2s1		inconclusive: 50.1 µM [inhibitor, partial curve]

Compound	max response, negative = inhibition	Potency
CCCNC(=O)C1Cc2cc(S(=O)(=O)N3CCCC3)ccc2N1C(C)=O (configuration not stated)		inconclusive: 2.51 µM [inhibitor, partial curve, poor fit]
c1cc(CNc2ccc(N3CCOCC3)cc2)ccn1		inconclusive: 50.1 µM [inhibitor, partial curve, poor fit]
Cc1nc(C)c(C(=O)Nc2ncc([N+](=O)[O-])s2)o1		inconclusive: 89.1 µM [inhibitor, single point]
C=CCNC(=O)CSc1ncc2c(n1)-c1c(csc1SC)CC2		inconclusive: 89.1 µM [inhibitor, single point]
CCOC(=O)c1nnc(-c2ccc(C)cc2)nc1Oc1ccc(Cl)cc1Cl		inconclusive: 5.01 µM [inhibitor, full curve, poor fit]
Cc1c(C(=O)Nc2cccc(F)c2)cnn1-c1ccccc1		inconclusive: 89.1 µM [inhibitor, single point]
Cc1nn(-c2ccc(Cl)cc2)c(Cl)c1/C=C(\C#N)C(N)=O		inconclusive: 17.8 µM [inhibitor, partial curve, poor fit]
Cc1ccc(-c2nc3ccccc3nc2NN)cc1	inactive: -12.1%	
CN1CC[n+]2cnc3ccccc3c21	inactive: -24.8%	
COCCNC(=O)c1cc(S(=O)(=O)N2CCCCC2)ccc1N1CCOCC1	inactive: 13.3%	
CC(C)(C)NC(=O)NC(=O)CN1CCN(S(=O)(=O)c2ccc3c(c2)CCCC3)CC1	inactive: -8.57%	
COc1ccc(OC)c(NS(=O)(=O)c2ccc3c(c2)CCCN3C(=O)C2CCC2)c1	inactive: -8.62%	
Cn1c(SCc2cccc(C#N)c2)nc2ccccc2c1=O		inconclusive: 39.8 µM [inhibitor, partial curve, poor fit]
O=C(Nc1cc(Cl)cc(Cl)c1)C(NCCO)c1ccccc1 (configuration not stated)	inactive: 3.08%	
O=C(O)CN1C(=O)/C(=C\c2cn(-c3ccccc3)nc2-c2ccccc2)SC1=S		inconclusive: 79.4 µM [inhibitor, partial curve, poor fit]
CCc1nn(CC(=O)NCCN(CC(C)C)CC(C)C)c(=O)c2cc3sc(C)cc3n12	inactive: -0.728%	
COc1ccc(-c2nn(-c3ccccc3)cc2/C=C2/SC(=S)N(CCC(=O)O)C2=O)cc1		inconclusive: 70.8 µM [inhibitor, partial curve]
N/C(=N\OC(=O)c1ccc(Cl)cc1)c1[nH]ncc1Br		inconclusive: 3.55 µM [inhibitor, partial curve, poor fit]
Cc1ccc(NC(=O)c2sc3ncn(CC(=O)N4CCN(c5ccccn5)CC4)c(=O)c3c2C)cc1Cl	inactive: -15%	
c1ccc(-c2ccc(N3CCCC4(CCNCC4)C3)cc2)cc1		inconclusive: 25.1 µM [inhibitor, full curve]
O=C(CCn1c(=O)c2cccn2c2cccnc21)NCc1ccc(Cl)cc1	inactive: 11.7%	
